Patent US20180214506A1, “COMBINATION ADMINISTRATION OF GNRH ANTAGONISTS” (ANTEV LIMITED, priority 2017, published 2018)
Structures can show the parent of a compound that is named as a salt. Part of at least one peptide drawing is inferred or uncertain, most often the ends. Non-standard residues stand in square brackets, D forms with d. Residues, ends and D or L forms follow the SMILES beside them. Phe(4-Cl) = N[C@@H](Cc1ccc(Cl)cc1)C(=O)O; dPhe(4-Cl) = N[C@H](Cc1ccc(Cl)cc1)C(=O)O; d2Nal = N[C@H](Cc1ccc2ccccc2c1)C(=O)O; d(hCit) = NC(=O)NCCCC[C@@H](N)C(=O)O; Lys(iPr) = CC(C)NCCCC[C@H](N)C(=O)O; d3Pal = N[C@H](Cc1cccnc1)C(=O)O

Columns and labels:
Assay type in all cases: in vivo, human
LH, testosterone, FSH = experiment: Phase I study D-84812-Z012, single s.c. injection: pharmacodynamics (hormone suppression)
testosterone [1] = experiment: Phase I study EP-24332T-A004, repeated s.c. injections: testosterone suppression; details: for mean levels of testosterone, % of the baseline value: maintained for more than 4 weeks
testosterone [2] = experiment: Phase II study 2 x 90 mg i.m. Days 1 and 8 (A014): testosterone suppression / castration
luteinising hormone (LH) = experiment: Phase II study 2 x 90 mg i.m. (A014): effect on LH; details: A014: i.m. 90 mg day 1 and 8
[3] = test system: prostate specific antigen (PSA); experiment: Phase II study 2 x 90 mg i.m. (A014): effect on PSA; details: A014: i.m. 90 mg day 1 and 8
testosterone [4] = experiment: Clinical study A013, s.c. injection 90 mg days 1, 2 and 3: testosterone suppression / castration; details: A013: s.c. 90 mg days 1, 2 and 3
LH = experiment: Clinical study A013, s.c. injection 90 mg days 1, 2 and 3: effect on LH; details: A013: s.c. 90 mg days 1, 2 and 3
PSA = experiment: Clinical study A013, s.c. injection 90 mg days 1, 2 and 3: effect on PSA; details: A013: s.c. 90 mg days 1, 2 and 3
[5] = 2 x 90 mg i.m., ITT and PP datasets
[6] = 2 x 90 mg i.m., ITT and PP datasets, listed as Teverelix LA

SMILES: CC(=O)N[C@H](Cc1ccc2ccccc2c1)C(=O)N[C@H](Cc1ccc(Cl)cc1)C(=O)N[C@H](Cc1cccnc1)C(=O)N[C@@H](CO)C(=O)N[C@@H](Cc1ccc(O)cc1)C(=O)N[C@H](CCCCNC(N)=O)C(=O)N[C@@H](CC(C)C)C(=O)N[C@@H](CCCCNC(C)C)C(=O)N1CCC[C@H]1C(=O)N[C@H](C)C(N)=O [Teverelix TFA, teverelix trifluoroacetate] (Ac-[d2Nal][dPhe(4-Cl)][d3Pal]SY[d(hCit)]L[Lys(iPr)]P[dA]-NH2)
- hormone suppression over a long period (LH, testosterone, FSH; low doses of 10 mg and 30 mg, single s.c.): insufficient to attain hormone suppression over a long period
- duration of at least half-maximum testosterone suppression (LH, testosterone, FSH; single s.c. injection, doses up to 90 mg): increased with dose
- suppression of LH, testosterone and FSH (LH, testosterone, FSH; single s.c. injection, healthy male volunteers): rapid marked suppression of LH, testosterone and, to a lesser extent, FSH
- mean testosterone level relative to castration level (testosterone [1]; 90 mg s.c. on D1, D2, D3): above castration level
- subjects with suppression of testosterone to below castration level (<0.5 ng/mL) (testosterone [1]; 90 mg s.c. on D1, D2, D3): 5 out of 6
- DC (duration of castration), Mean (SD) (testosterone [2]; [5]): 34.77 (9.28) Days
- DC, Median (range) (testosterone [2]; [5]): 34.90 (20.8-57.7) Days
- Tcast (time of onset of castration), Mean (SD) (testosterone [2]; [5]): 2.40 (2.52) Days
- Tcast, Median (range) (testosterone [2]; [5]): 1.30 (0.9-8.0) Days
- Tesc (time of escape from castration), Mean (SD) (testosterone [2]; [5]): 46.17 (10.88) Days
- Tesc, Median (range) (testosterone [2]; [5]): 46.20 (29.4-75.2) Days
- DC (duration of castration), Mean (SD) (testosterone [2]; [6]): 34.77 days Days
- Tcast (time of onset of castration), Mean (SD) (testosterone [2]; [6]): 2.40 days Days
- Tesc (time of escape from castration), Mean (SD) (testosterone [2]; [6]): 46.17 days Days
- duration of castration, range (testosterone [2]; A014: i.m. 90 mg day 1 and 8): (range 3-8 weeks)
- testosterone concentrations during breakthrough episodes (testosterone [2]; all instances, 2 x 90 mg i.m.): below 2 ng/mL
- patients with transient breakthrough episodes during castration (testosterone above 0.5 ng/mL) (testosterone [2]; eight out of 14 patients, 2 x 90 mg i.m.): 57.1%
- LH, change after administration (luteinising hormone (LH)): Decreased appreciably
- PSA, change after administration [3]: Decreased appreciably

SMILES: CC(=O)N[C@H](Cc1ccc2ccccc2c1)C(=O)N[C@@H](Cc1ccc(Cl)cc1)C(=O)N[C@H](Cc1cccnc1)C(=O)N[C@@H](CO)C(=O)N[C@H](Cc1ccc(O)cc1)C(=O)N[C@H](CCCCNC(N)=O)C(=O)N[C@@H](CC(C)C)C(=O)N[C@@H](CCCCNC(C)C)C(=O)N1CCC[C@H]1C(=O)N[C@H](C)C(N)=O [teverelix, Ac-D-NaID-pClPhe-D-Pal-Ser-Tyr-D-Hci-Leu-Lys(iPr)-Pro-D-Ala-NH2] (Ac-[d2Nal][Phe(4-Cl)][d3Pal]S[dY][d(hCit)]L[Lys(iPr)]P[dA]-NH2)
- mean levels of testosterone, % of the baseline value (testosterone [1]; 60 mg/60 mg s.c. group): 40%
- mean levels of testosterone, % of the baseline value (testosterone [1]; 90 mg/90 mg s.c. group): 60%
- DC, Patient 01 (testosterone [2]; 2 x 90 mg i.m.): 21.3 days
- DC, Patient 03 (testosterone [2]; 2 x 90 mg i.m.): 20.8 days
- DC, Patient 08 (testosterone [2]; 2 x 90 mg i.m.): 26.0 days
- patients with DC longer than 4 weeks (testosterone [2]; 2 x 90 mg i.m.): 11/14
- patients with Tcast within 2 days of administration of the first dose (testosterone [2]; 2 x 90 mg i.m.): 11/14
- day by which all patients' testosterone concentration had decreased to below biochemical castration (<0.5 ng/mL) (testosterone [2]; 2 x 90 mg i.m. Days 1 and 8): ≤ 9 days
- DC (duration of castration), Mean (SD) (testosterone [2]; [5]): 34.77 (9.28) Days
- Tcast (time of onset of castration), Mean (SD) (testosterone [2]; [5]): 2.40 (2.52) Days
- Tesc (time of escape from castration), Mean (SD) (testosterone [2]; [5]): 46.17 (10.88) Days
- testosterone, decrease from baseline (testosterone [2]; Day 2, 90 mg i.m. Day 1): approximately 83%
- serum testosterone concentration, Patient 01 (testosterone [2]; end of Week 3): 0.27 ng/mL
- serum testosterone concentration, Patient 01 (testosterone [2]; end of Week 4): 1.25 ng/mL
- serum testosterone concentration, Patient 01 (testosterone [2]; end of Week 5): 4.97 ng/mL
- Tcast, Patient 03 (testosterone [2]; estimated, 2 x 90 mg i.m.): 8.0 days
- Tcast, Patient 06 (testosterone [2]; estimated, 2 x 90 mg i.m.): 6.0 days
- Tcast, Patient 09 (testosterone [2]; estimated, 2 x 90 mg i.m.): 6.9 days
- individual serum testosterone concentrations, all patients except Patient 01 (testosterone [2]; until at least the end of Week 5, 2 x 90 mg i.m.): below 2 ng/mL
- Mean duration of castration (testosterone [4]): 55.32 days
- Mean escape from castration (testosterone [4]): 70.14 days
- Onset of castration (testosterone [4]): 1.77 days
- duration of castration, range (testosterone [4]): (range 4-14 weeks)
- LH, change after administration (LH): Decreased following first
- PSA, change after administration (PSA): Decreased following first
